Results published in the supplement of paper PMC10849652.
Some of the results follow.

By UniProt entry, the sequences of proteins in these tests, tags left out. Where a name states a change or a piece, a line headed by the entry shows the natural chain unless it says otherwise.
UniProt Q9BV23: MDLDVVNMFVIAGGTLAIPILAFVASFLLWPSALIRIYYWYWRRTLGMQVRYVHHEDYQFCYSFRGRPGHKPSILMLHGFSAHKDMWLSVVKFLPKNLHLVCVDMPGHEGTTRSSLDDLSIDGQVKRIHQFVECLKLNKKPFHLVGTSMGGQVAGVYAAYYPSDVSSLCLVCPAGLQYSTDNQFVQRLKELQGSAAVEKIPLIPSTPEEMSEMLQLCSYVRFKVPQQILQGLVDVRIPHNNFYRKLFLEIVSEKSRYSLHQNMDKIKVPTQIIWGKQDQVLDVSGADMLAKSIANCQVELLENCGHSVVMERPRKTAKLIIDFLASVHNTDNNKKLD
UniProt Q9BUJ0: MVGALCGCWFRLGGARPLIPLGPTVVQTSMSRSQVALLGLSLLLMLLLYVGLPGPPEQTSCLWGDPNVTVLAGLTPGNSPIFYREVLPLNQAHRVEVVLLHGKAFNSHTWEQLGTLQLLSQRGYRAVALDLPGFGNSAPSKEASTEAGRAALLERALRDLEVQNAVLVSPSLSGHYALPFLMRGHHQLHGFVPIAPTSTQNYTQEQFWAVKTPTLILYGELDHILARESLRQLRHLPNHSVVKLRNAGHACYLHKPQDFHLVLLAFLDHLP
UniProt O14678: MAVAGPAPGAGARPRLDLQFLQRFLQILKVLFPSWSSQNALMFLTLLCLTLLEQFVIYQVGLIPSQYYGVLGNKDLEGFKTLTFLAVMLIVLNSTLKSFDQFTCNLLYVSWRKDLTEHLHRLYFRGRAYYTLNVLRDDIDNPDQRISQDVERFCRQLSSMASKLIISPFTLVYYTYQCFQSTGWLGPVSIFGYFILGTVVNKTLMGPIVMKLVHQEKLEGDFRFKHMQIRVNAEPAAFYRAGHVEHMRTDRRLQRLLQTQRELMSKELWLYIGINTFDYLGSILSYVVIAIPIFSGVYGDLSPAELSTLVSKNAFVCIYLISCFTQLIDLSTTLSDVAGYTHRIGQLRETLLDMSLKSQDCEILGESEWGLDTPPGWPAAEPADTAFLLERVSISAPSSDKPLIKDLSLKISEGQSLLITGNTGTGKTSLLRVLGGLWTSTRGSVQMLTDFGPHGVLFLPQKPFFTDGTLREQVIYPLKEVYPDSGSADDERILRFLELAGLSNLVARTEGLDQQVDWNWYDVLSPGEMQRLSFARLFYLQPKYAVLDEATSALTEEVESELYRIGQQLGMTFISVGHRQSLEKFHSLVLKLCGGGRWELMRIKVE
UniProt Q8WTS1: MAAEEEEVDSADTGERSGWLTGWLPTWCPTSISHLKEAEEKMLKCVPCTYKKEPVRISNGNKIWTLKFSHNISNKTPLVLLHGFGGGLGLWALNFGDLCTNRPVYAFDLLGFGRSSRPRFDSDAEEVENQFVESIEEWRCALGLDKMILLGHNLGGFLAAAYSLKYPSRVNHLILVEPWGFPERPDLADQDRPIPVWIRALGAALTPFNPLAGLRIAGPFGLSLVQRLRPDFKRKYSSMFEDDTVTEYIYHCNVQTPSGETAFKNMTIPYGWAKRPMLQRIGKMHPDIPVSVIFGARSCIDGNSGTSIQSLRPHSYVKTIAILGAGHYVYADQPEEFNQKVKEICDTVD
UniProt P21439, whole entry, looked up: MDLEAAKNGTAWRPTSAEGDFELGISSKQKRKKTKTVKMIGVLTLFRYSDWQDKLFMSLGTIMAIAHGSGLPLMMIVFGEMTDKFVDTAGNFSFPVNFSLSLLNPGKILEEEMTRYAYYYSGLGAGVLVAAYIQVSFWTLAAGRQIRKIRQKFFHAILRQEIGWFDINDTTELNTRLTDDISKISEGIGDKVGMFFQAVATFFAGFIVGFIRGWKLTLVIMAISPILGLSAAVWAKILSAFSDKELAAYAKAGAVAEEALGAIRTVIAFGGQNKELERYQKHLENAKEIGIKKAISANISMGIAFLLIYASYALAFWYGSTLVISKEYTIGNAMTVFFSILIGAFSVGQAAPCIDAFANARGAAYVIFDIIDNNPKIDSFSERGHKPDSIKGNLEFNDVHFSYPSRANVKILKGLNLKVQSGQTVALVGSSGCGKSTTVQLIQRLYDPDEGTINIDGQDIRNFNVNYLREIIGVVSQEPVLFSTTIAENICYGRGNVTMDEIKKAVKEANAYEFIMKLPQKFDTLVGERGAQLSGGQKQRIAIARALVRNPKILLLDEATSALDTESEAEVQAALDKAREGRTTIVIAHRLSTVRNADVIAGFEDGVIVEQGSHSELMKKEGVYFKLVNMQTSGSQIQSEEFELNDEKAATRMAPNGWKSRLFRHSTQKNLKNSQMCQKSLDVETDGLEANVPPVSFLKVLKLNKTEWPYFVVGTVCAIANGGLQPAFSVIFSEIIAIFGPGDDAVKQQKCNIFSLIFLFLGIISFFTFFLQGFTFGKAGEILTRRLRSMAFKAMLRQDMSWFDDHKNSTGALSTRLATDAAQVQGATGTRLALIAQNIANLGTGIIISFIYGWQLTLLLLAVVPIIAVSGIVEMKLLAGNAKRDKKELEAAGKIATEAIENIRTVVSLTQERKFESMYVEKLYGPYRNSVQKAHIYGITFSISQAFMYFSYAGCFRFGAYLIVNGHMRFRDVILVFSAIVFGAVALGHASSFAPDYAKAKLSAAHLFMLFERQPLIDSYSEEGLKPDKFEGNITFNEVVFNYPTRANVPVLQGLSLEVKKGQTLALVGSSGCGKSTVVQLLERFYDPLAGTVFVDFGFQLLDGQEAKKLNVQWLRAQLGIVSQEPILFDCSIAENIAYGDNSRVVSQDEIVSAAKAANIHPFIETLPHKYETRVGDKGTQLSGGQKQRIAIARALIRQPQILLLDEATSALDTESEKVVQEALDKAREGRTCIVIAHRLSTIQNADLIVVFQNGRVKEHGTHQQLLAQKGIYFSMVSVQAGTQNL
UniProt Q5T8D3: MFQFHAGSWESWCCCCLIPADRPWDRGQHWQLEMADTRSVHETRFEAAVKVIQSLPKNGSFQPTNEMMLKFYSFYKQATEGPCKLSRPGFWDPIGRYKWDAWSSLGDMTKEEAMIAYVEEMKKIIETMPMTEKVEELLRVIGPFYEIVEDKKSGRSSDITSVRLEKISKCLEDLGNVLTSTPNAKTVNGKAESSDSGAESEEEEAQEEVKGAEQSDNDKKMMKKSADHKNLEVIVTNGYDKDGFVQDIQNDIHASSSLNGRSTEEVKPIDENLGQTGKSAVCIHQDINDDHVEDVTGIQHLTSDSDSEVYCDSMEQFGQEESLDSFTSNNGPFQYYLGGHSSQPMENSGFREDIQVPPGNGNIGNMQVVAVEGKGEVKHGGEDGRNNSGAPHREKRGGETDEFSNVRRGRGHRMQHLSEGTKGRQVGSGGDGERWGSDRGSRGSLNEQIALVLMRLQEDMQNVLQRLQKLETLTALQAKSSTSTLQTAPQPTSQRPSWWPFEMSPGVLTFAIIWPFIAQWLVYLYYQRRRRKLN
UniProt Q15067: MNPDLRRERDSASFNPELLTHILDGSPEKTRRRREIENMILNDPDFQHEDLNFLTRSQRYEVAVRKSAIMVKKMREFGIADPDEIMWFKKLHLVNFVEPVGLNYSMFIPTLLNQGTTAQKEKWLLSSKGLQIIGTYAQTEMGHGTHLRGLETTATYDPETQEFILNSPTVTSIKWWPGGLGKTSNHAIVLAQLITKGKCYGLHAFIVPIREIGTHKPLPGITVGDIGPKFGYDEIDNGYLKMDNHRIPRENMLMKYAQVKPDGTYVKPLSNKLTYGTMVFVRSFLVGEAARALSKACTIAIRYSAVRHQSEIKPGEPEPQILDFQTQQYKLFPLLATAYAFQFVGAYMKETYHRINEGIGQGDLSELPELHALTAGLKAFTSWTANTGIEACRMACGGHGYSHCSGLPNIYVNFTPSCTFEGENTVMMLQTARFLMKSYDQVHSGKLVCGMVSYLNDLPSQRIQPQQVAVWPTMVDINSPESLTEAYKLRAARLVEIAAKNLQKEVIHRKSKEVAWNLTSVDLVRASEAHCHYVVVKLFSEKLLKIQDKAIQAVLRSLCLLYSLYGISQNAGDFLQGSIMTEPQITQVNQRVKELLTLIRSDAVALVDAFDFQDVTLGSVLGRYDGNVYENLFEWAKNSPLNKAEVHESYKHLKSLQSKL
UniProt P80404: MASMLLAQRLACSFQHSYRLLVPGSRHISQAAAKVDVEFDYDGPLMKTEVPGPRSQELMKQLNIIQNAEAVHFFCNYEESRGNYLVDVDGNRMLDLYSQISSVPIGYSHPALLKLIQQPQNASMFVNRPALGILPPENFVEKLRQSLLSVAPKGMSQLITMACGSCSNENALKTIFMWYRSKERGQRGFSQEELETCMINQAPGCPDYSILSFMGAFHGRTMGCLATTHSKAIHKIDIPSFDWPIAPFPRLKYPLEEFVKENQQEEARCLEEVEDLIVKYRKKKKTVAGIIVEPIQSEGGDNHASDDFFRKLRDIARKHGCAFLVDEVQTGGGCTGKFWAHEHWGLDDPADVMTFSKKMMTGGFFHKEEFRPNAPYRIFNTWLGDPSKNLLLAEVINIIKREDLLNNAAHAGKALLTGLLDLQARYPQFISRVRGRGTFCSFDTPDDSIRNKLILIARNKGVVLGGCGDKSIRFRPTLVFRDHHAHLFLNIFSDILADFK
UniProt O15254: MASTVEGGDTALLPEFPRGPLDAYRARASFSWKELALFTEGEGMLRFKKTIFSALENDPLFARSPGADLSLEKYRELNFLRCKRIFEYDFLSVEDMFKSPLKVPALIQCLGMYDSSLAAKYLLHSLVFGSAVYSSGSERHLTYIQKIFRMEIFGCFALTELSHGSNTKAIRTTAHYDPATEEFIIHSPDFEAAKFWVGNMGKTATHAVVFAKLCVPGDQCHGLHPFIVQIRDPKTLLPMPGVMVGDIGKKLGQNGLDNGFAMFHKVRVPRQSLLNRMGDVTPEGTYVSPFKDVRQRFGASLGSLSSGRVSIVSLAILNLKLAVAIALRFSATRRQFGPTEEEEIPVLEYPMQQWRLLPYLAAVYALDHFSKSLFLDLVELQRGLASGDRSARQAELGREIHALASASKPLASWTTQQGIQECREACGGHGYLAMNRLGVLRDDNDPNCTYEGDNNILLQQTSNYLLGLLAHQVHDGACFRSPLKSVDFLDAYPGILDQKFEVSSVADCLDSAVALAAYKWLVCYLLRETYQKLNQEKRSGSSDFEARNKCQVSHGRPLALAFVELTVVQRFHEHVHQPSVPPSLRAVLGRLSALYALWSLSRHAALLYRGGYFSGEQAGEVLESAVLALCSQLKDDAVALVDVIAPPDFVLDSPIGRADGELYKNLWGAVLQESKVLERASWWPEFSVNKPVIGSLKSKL
UniProt O95342, whole entry, looked up: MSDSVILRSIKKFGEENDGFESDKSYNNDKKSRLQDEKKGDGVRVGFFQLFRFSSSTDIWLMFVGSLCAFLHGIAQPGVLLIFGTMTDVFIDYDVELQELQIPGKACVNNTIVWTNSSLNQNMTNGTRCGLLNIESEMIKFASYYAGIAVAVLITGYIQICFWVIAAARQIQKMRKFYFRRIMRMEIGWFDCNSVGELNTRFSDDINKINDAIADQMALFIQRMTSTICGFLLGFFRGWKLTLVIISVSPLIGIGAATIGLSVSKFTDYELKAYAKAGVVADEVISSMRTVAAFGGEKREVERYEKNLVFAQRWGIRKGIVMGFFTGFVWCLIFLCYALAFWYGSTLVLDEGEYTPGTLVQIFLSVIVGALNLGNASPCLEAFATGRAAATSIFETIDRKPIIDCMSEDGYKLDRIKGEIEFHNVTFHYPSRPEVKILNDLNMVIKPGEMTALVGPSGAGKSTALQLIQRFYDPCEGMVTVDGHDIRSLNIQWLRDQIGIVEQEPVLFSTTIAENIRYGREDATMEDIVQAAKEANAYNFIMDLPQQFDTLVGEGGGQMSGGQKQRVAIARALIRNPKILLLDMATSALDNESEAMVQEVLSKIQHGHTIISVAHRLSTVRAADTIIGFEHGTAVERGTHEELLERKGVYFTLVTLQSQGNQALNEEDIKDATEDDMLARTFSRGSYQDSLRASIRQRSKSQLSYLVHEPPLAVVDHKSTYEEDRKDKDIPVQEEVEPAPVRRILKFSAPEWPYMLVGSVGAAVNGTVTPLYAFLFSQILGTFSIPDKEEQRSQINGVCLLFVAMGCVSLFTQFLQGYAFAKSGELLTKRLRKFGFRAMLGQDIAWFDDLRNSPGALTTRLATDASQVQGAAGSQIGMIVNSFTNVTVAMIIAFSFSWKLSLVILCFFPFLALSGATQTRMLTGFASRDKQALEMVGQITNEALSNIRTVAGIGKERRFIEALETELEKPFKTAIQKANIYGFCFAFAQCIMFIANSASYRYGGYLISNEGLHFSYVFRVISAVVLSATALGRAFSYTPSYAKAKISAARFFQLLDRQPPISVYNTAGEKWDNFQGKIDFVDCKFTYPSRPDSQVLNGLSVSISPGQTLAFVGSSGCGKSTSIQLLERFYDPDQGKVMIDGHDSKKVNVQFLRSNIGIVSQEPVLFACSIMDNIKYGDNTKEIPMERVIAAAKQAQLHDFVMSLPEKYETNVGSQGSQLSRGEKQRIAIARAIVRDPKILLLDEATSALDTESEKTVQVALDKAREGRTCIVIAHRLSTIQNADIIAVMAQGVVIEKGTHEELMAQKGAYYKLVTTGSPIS

How the values were obtained:
Assay in all cases: log2 fold change, soluble protein after heating vs DMSO (PISA); higher = thermal stabilisation; K562 cells, 10 uM, 30 min; active = over 0.2 and 3.5 SD of the protein, either way, in both replicates (recomputed)
[1] = compound: Cc1cccc(CC(=O)N2CCc3c2ccc(-c2cn(C)c4ncnc(N)c24)c3F)n1
Summary of the method: (§1)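 Aliquots of K562 cells (2×10^6 cells/mL) treated with 10 μM compound for 30 min were heated for 3 min over 48°C-58°C. After pooling and extraction in PBS with 0.5% NP-40 at 4°C, soluble protein from a 21,000xg, 90 min spin was quantified by TMTpro 16plex LC-MS/MS with channel sums equalised. Thermal stability is expressed against control samples, from duplicates, as a log2 fold change.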

nilotinib = compound: Cc1cn(-c2cc(NC(=O)c3ccc(C)c(Nc4nccc(-c5cccnc5)n4)c3)cc(C(F)(F)F)c2)cn1 [nilotinib]
Summary of the method: as §1

[2] = compound: Cc1nc(Nc2n[nH]c3c2CN(C(=O)N[C@H](CN(C)C)c2ccccc2)C3(C)C)c2sccc2n1
Summary of the method: as §1

[3] = compound: Cc1ncc(-c2ccnc(Nc3ccc(S(C)(=O)=O)cc3)n2)n1C(C)C
Summary of the method: as §1

[4] = compound: Cn1cc(-c2ccc3nnc(C(F)(F)c4ccc5ncccc5c4)n3n2)cn1
Summary of the method: as §1

tipifarnib = compound: Cn1cncc1[C@@](N)(c1ccc(Cl)cc1)c1ccc2c(c1)c(-c1cccc(Cl)c1)cc(=O)n2C [tipifarnib]
Summary of the method: as §1

[5] = compound: NC(=O)Nc1cc(-c2cccc(F)c2)sc1C(=O)N[C@H]1CCCNC1
Summary of the method: as §1

entinostat = compound: Nc1ccccc1NC(=O)c1ccc(CNC(=O)OCc2cccnc2)cc1 [entinostat]
Summary of the method: as §1

vorinostat = compound: O=C(CCCCCCC(=O)Nc1ccccc1)NO [vorinostat]
Summary of the method: as §1

citarinostat = compound: O=C(CCCCCCNC(=O)c1cnc(N(c2ccccc2)c2ccccc2Cl)nc1)NO [citarinostat]
Summary of the method: as §1

[6] = compound: c1cc(OCCN2CCCCC2)cc(-c2n[nH]c3ccc(-c4nnc[nH]4)cc23)c1
Summary of the method: as §1

dasatinib = compound: Cc1nc(Nc2ncc(C(=O)Nc3c(C)cccc3Cl)s2)cc(N2CCN(CCO)CC2)n1 [dasatinib]
Summary of the method: as §1

bafetinib = compound: Cc1ccc(NC(=O)c2ccc(CN3CC[C@H](N(C)C)C3)c(C(F)(F)F)c2)cc1Nc1nccc(-c2cncnc2)n1 [bafetinib]
Summary of the method: as §1

[7] = compound: O=C1NC(=O)C(c2cnc3ccccn23)=C1c1cn2c3c(cc(F)cc13)CN(C(=O)N1CCCCC1)CC2
Summary of the method: as §1

[8] = compound: NC(=O)c1cnc(N[C@@H]2CCCC[C@@H]2N)nc1Nc1cccc(-n2nccn2)c1
Summary of the method: as §1

[9] = compound: NCC(=O)Nc1ccc(-n2nc(C(F)(F)F)cc2-c2ccc3c(ccc4ccccc43)c2)cc1
Summary of the method: as §1

[10] = compound: Cn1cc(-c2ccc3c(c2)CCN3C(=O)Cc2cccc(C(F)(F)F)c2)c2c(N)ncnc21
Summary of the method: as §1

mubritinib = compound: FC(F)(F)c1ccc(/C=C/c2nc(COc3ccc(CCCCn4ccnn4)cc3)co2)cc1 [mubritinib]
Summary of the method: as §1

[11] = compound: NC1(c2ccc(-c3nc4ccn5c(=O)[nH]nc5c4cc3-c3ccccc3)cc2)CCC1
Summary of the method: as §1

silmitasertib = compound: O=C(O)c1ccc2c(c1)nc(Nc1cccc(Cl)c1)c1ccncc12 [silmitasertib]
Summary of the method: as §1

Measured: log2 fold change

ABHD6 (UniProt Q9BV23)
inactive: [1] -0.143 | nilotinib 0.887 | [2] -0.025 | [3] 0.053 | [4] 0.174 | tipifarnib 0.407 | [5] -0.447 | entinostat -0.036 | vorinostat -0.121 | citarinostat -0.199 | [6] -0.054

ABHD14A (UniProt Q9BUJ0)
inactive: dasatinib 0 | [5] -0.309 | entinostat -0.136

ABL2 (UniProt P42684)
inactive: bafetinib -0.004 | [4] -0.08 | [5] -0.463 | entinostat -0.243 | [7] -0.088

ACAD10 isoform 5 (UniProt Q6JQN1)
inactive: dasatinib -0.006 | [4] 0.018 | [8] -0.132 | [9] 0.005

ABCD1 (UniProt P33897)
inactive: [10] 0.073 | [5] -0.058 | [8] -0.054 | entinostat 0.026 | [7] -0.001

ADAM8 (UniProt P78325)
inactive: [7] -0.106

ABCD4 (UniProt O14678)
inactive: bafetinib -0.08 | nilotinib 0.041 | [2] 0.1 | [3] 0.145 | [10] -0.061 | [4] 0.051 | tipifarnib -0.072 | mubritinib 0.044 | [5] 0.03 | [8] -0.027 | [11] -0.319 | [9] -0.098 | entinostat -0.004 | citarinostat -0.006 | silmitasertib 0.015 | [7] -0.09 | [6] -0.025

ABCB1 (UniProt P08183)
inactive: [10] 0.023 | tipifarnib 0.19 | mubritinib -0.318 | [8] -0.05 | [11] 0.054 | citarinostat -0.115 | silmitasertib 0.003 | [6] 0.097

ACOT7 (UniProt K7EKP8)
inactive: [8] -0.016

ABHD4 (UniProt Q8TB40)
inactive: bafetinib -0.122 | [7] -0.356

ACTG1 (UniProt I3L4N8)
inactive: nilotinib 0.261 | [2] -0.059 | dasatinib -0.094 | [3] -0.005 | [4] 0.055 | mubritinib -0.133 | [11] 0.099 | citarinostat 0.029 | silmitasertib -0.067 | [6] 0.073

ABHD5 (UniProt Q8WTS1)
inactive: bafetinib -0.114 | dasatinib -0.202 | [10] 0 | [4] 0.055 | tipifarnib 0 | [5] 0.015 | [8] 0.033 | entinostat 0.047 | citarinostat 0.102 | [6] -0.072

ABCB5 (UniProt Q2M3G0)
inactive: bafetinib -0.022 | nilotinib -0.027 | [2] -0.041 | [3] 0.108

ABRACL (UniProt Q9P1F3)
inactive: bafetinib -0.207 | nilotinib 0.191 | [2] -0.076 | [3] -0.182 | [4] -0.02 | mubritinib 0.057 | [5] -0.043 | [11] -0.002 | entinostat 0.036 | silmitasertib -0.035

ADAMTS13 (UniProt Q76LX8)
inactive: dasatinib 0.082 | tipifarnib 0.124 | [5] -0.058 | [8] -0.039 | entinostat -0.253 | citarinostat -0.028 | [7] 0.154 | [6] 0.192

ACTR3B (UniProt Q9P1U1)
inactive: [1] 0.035 | nilotinib 0.036 | [2] -0.082 | [3] -0.001 | [4] -0.051 | tipifarnib 0.129 | [9] -0.217 | vorinostat -0.067

ABCB4 (UniProt P21439)
inactive: [4] 0.062 | tipifarnib -0.151 | mubritinib 0.025 | [8] -0.202 | [11] -0.209 | [9] -0.198 | citarinostat 0.017 | silmitasertib 0.16 | [6] -0.095

ABL1 isoform 2 (UniProt P00519)
inactive: [1] 0.038 | [10] 0.011 | [4] -0.102 | tipifarnib 0.028 | mubritinib -0.067 | [5] 0.004 | [8] 0.092 | [11] 0.139 | [9] 0.023 | entinostat 0.013 | vorinostat -0.005 | citarinostat 0.026 | silmitasertib 0.11 | [7] 0.127 | [6] -0.064

ACAA2 (UniProt K7ER88)
inactive: bafetinib 0.058 | nilotinib -0.105 | [2] -0.043 | [3] 0.022 | tipifarnib 0.098 | mubritinib -0.2 | [5] 0.06 | [8] -0.328 | [11] 0.503 | [9] -0.016 | entinostat -0.045 | citarinostat 0.187 | silmitasertib 0.064 | [7] 0.077 | [6] -0.032

ACBD5 (UniProt Q5T8D3)
inactive: [1] -0.112 | dasatinib -0.151 | [10] -0.001 | [4] -0.123 | tipifarnib -0.074 | mubritinib -0.265 | [5] -0.116 | [8] 0.009 | [11] 0.157 | [9] 0.044 | entinostat 0.089 | vorinostat 0.012 | silmitasertib -0.051 | [7] -0.025

ACOX1 isoform 3 (UniProt Q15067)
inactive: [9] -0.124

ACSF2 isoform 2 (UniProt Q96CM8)
inactive: [1] 0.001 | [4] 0.124 | vorinostat -0.026

6 consecutive records from above, quoted:
ACTR3B (UniProt Q9P1U1)
inactive: [1] 0.035 | nilotinib 0.036 | [2] -0.082 | [3] -0.001 | [4] -0.051 | tipifarnib 0.129 | [9] -0.217 | vorinostat -0.067

ABCB4 (UniProt P21439)
inactive: [4] 0.062 | tipifarnib -0.151 | mubritinib 0.025 | [8] -0.202 | [11] -0.209 | [9] -0.198 | citarinostat 0.017 | silmitasertib 0.16 | [6] -0.095

ABL1 isoform 2 (UniProt P00519)
inactive: [1] 0.038 | [10] 0.011 | [4] -0.102 | tipifarnib 0.028 | mubritinib -0.067 | [5] 0.004 | [8] 0.092 | [11] 0.139 | [9] 0.023 | entinostat 0.013 | vorinostat -0.005 | citarinostat 0.026 | silmitasertib 0.11 | [7] 0.127 | [6] -0.064

ACAA2 (UniProt K7ER88)
inactive: bafetinib 0.058 | nilotinib -0.105 | [2] -0.043 | [3] 0.022 | tipifarnib 0.098 | mubritinib -0.2 | [5] 0.06 | [8] -0.328 | [11] 0.503 | [9] -0.016 | entinostat -0.045 | citarinostat 0.187 | silmitasertib 0.064 | [7] 0.077 | [6] -0.032

ACBD5 (UniProt Q5T8D3)
inactive: [1] -0.112 | dasatinib -0.151 | [10] -0.001 | [4] -0.123 | tipifarnib -0.074 | mubritinib -0.265 | [5] -0.116 | [8] 0.009 | [11] 0.157 | [9] 0.044 | entinostat 0.089 | vorinostat 0.012 | silmitasertib -0.051 | [7] -0.025

ACOX1 isoform 3 (UniProt Q15067)
inactive: [9] -0.124

(cont.)

ABAT (UniProt P80404)
inactive: [7] 0.067

ACLY isoform 2 (UniProt P53396)
inactive: bafetinib -0.08 | nilotinib -0.108 | [2] -0.058 | [3] 0.014 | [4] -0.116 | tipifarnib 0.147 | mubritinib -0.306 | [5] -0.106 | [8] 0.199 | [11] -0.236 | [9] -0.29 | entinostat -0.061 | citarinostat -0.021 | silmitasertib 0.086 | [7] -0.063 | [6] -0.277

ACTB, A0A2R8YGF8
inactive: mubritinib -1.16 | [11] 0.416 | silmitasertib -0.083

ACBD7 (UniProt Q8N6N7)
inactive: [1] -0.157 | dasatinib -0.027 | tipifarnib -0.042 | vorinostat -0.081 | citarinostat -0.008 | [6] -0.074

ADCK1 (UniProt Q86TW2)
inactive: nilotinib -0.029 | [2] 0.039 | dasatinib -0.041 | [3] -0.063 | [10] -0.04 | [4] 0.071 | tipifarnib 0.048 | mubritinib 0.195 | [5] 0.3 | [11] 0.054 | [9] -0.001 | entinostat 0.195 | silmitasertib -0.013 | [7] 0.121

ACOX3 (UniProt O15254)
inactive: bafetinib 0.053 | nilotinib 0.159 | [2] -0.028 | [3] 0.107 | [10] -0.009 | tipifarnib 0.272 | mubritinib -0.241 | [5] -0.084 | [8] 0.004 | [11] -0.09 | [9] 0.16 | entinostat 0.071 | citarinostat 0.287 | silmitasertib -0.302 | [7] -0.022 | [6] -0.016

ACTC1 (UniProt P68032)
inactive: citarinostat 0.276 | [6] -0.151

ACYP2 (UniProt P14621)
inactive: nilotinib 0.168 | [2] -0.02 | [3] -0.046 | [10] -0.226 | tipifarnib 0.007 | mubritinib 0.124 | [5] -0.06 | [11] 0.031 | [9] 0.052 | entinostat 0.11 | citarinostat -0.301 | silmitasertib -0.06 | [6] -0.15

ABCB11 (UniProt O95342)
inactive: [10] 0.025 | [4] -0.013 | tipifarnib 0.073 | mubritinib 0.065 | [5] -0.139 | [11] -0.03 | entinostat -0.038 | silmitasertib 0.065

ACTG1 (UniProt K7EM38)
inactive: [1] -0.041 | dasatinib -0.169 | [10] -0.391 | [4] -0.443 | tipifarnib -0.648 | [5] -0.06 | [8] -0.194 | [9] -0.007 | entinostat 0.075 | vorinostat 0.246 | citarinostat 0.055 | [7] -0.113 | [6] 0.072

AACS (UniProt Q86V21)
inactive: [4] -0.115 | [7] 0.197
